For assay [1], the target named is CDK4 (human (endogenous in HNSCC cell lines)) (UniProt P11802). As to the kind of experiment: co-IP.
Assay [2] deals with CDK6 (human (endogenous in HNSCC cell lines)) (UniProt Q00534). Description: co-IP.

The chains behind the UniProt entries cited, without tags or fusion partners.
UniProt P11802: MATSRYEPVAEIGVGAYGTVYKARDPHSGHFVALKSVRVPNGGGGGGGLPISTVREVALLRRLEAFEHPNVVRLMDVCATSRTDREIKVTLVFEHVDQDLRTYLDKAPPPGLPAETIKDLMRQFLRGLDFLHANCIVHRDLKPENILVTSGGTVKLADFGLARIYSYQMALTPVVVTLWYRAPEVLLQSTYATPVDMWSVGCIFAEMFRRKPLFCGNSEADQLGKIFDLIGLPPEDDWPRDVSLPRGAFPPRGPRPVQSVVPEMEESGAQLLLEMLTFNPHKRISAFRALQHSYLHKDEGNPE
UniProt Q00534: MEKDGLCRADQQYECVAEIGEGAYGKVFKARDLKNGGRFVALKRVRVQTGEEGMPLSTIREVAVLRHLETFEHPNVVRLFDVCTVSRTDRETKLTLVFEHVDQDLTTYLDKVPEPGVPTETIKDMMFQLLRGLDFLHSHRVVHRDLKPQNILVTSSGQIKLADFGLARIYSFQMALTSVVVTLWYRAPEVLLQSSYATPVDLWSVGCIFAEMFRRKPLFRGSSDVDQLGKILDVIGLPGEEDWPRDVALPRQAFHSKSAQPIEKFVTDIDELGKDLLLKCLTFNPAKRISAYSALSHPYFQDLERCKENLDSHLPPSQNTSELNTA
UniProt P24385: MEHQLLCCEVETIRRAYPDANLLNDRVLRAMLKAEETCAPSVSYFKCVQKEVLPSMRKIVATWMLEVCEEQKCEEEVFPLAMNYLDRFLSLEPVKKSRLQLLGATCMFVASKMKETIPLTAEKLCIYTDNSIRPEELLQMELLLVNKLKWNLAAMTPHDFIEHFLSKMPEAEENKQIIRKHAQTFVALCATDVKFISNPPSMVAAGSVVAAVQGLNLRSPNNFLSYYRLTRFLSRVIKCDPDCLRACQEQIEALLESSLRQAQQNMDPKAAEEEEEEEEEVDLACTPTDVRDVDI
UniProt P46527: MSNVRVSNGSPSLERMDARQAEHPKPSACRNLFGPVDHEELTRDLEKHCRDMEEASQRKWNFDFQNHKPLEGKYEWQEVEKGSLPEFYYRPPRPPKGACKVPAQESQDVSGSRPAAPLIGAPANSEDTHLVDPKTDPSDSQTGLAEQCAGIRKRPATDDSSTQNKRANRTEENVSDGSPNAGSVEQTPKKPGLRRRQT

No constants are given. Whether binding was seen depends on the method and setting. In cells and extracts the contact can be indirect. Some binding calls cover weakened binding; strength is not graded here.

Take cyclin D1 (from UniProt P24385 1-295): the binding entry in assay [1] is recorded as “binds”.

“cyclin D1 (from UniProt P24385 1-295) (other; other documents disagree on this pair)”: in assay [2], the binding entry is listed as “binds”.

For the substance p27 (from UniProt P46527 1-198), the binding result in assay [1] is on record as “binds”.
